Measurements as given in paper doi:10.1101/2022.09.09.507377.
Read-outs that look alike come from different tables or passages of the source. No constants are given. Whether binding was seen depends on the method and setting. Binding seen in cells or lysates may run through a third protein. These calls come from enrichment with a bait or labelling near it, and not all partners need be listed. For some of these results: Sequences can lack the tags named with a protein. Each block holds one molecule with its values, some of them ahead of it.

Amino acid sequences for entries named in this document (tags omitted). Residues count along the entry.
UniProt O14974: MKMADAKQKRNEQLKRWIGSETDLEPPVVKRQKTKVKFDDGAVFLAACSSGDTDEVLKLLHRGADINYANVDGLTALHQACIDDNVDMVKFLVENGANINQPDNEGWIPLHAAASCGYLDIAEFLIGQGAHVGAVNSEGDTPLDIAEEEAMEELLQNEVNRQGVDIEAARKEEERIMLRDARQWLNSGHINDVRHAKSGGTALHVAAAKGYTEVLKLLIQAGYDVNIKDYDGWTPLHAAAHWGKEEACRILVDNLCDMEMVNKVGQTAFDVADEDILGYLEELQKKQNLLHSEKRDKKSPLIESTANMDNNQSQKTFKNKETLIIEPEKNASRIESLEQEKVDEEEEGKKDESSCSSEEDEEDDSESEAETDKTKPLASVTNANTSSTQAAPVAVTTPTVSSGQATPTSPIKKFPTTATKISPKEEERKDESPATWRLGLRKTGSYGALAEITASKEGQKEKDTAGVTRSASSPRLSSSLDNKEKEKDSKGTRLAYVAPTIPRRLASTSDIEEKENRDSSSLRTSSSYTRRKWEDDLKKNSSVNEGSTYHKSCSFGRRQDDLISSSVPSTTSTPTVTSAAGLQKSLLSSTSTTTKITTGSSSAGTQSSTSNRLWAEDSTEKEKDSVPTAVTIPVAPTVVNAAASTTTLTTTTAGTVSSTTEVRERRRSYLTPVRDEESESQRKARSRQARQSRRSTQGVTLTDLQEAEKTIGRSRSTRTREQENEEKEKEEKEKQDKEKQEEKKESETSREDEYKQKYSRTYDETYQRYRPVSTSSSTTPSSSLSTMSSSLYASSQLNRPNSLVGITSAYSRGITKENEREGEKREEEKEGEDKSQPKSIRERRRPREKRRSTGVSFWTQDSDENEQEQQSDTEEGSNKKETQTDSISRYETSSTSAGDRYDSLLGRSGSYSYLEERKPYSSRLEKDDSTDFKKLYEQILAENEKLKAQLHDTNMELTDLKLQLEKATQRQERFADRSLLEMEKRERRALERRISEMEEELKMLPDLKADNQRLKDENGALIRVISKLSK
UniProt P31431, residues 19-198: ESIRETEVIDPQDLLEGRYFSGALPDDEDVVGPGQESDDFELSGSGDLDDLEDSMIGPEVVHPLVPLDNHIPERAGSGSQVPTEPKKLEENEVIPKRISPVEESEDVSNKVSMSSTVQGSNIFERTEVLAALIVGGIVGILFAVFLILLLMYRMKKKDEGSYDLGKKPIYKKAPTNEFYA
UniProt P27816: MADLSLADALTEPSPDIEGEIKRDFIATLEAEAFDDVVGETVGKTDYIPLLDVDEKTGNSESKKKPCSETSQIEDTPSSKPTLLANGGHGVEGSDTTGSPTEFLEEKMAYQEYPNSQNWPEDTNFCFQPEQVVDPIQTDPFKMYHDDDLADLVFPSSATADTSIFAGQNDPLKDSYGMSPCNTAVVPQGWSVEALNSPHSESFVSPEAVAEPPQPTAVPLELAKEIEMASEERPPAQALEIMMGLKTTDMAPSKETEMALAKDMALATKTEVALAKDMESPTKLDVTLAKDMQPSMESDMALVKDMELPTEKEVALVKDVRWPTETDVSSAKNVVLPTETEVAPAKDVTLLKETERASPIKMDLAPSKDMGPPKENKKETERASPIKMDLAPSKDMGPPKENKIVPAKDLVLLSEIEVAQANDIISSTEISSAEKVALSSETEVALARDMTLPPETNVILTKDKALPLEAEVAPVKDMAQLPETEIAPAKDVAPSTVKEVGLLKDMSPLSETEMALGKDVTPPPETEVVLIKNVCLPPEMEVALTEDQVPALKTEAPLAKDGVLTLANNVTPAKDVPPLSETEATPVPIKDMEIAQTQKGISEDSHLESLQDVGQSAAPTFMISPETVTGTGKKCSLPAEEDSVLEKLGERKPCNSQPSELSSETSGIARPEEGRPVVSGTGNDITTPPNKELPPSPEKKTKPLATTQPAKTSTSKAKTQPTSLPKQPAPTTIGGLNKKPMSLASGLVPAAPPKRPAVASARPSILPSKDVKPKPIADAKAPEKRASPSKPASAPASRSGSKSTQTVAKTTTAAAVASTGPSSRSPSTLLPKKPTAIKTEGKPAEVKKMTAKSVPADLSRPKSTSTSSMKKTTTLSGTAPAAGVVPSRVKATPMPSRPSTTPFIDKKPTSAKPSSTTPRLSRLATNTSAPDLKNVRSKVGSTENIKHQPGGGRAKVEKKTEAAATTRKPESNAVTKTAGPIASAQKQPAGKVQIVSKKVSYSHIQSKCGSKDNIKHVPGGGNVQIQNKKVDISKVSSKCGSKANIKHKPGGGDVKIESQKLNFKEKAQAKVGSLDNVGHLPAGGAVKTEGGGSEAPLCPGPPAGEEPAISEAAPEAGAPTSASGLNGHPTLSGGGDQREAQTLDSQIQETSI
UniProt P47756: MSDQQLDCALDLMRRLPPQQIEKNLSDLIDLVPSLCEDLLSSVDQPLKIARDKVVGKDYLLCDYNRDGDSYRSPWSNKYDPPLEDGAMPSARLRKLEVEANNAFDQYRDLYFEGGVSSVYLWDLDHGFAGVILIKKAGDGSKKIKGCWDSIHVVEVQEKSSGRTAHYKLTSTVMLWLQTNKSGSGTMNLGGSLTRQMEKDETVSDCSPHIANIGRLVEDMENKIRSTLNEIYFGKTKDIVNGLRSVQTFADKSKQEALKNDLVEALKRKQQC
UniProt Q14008: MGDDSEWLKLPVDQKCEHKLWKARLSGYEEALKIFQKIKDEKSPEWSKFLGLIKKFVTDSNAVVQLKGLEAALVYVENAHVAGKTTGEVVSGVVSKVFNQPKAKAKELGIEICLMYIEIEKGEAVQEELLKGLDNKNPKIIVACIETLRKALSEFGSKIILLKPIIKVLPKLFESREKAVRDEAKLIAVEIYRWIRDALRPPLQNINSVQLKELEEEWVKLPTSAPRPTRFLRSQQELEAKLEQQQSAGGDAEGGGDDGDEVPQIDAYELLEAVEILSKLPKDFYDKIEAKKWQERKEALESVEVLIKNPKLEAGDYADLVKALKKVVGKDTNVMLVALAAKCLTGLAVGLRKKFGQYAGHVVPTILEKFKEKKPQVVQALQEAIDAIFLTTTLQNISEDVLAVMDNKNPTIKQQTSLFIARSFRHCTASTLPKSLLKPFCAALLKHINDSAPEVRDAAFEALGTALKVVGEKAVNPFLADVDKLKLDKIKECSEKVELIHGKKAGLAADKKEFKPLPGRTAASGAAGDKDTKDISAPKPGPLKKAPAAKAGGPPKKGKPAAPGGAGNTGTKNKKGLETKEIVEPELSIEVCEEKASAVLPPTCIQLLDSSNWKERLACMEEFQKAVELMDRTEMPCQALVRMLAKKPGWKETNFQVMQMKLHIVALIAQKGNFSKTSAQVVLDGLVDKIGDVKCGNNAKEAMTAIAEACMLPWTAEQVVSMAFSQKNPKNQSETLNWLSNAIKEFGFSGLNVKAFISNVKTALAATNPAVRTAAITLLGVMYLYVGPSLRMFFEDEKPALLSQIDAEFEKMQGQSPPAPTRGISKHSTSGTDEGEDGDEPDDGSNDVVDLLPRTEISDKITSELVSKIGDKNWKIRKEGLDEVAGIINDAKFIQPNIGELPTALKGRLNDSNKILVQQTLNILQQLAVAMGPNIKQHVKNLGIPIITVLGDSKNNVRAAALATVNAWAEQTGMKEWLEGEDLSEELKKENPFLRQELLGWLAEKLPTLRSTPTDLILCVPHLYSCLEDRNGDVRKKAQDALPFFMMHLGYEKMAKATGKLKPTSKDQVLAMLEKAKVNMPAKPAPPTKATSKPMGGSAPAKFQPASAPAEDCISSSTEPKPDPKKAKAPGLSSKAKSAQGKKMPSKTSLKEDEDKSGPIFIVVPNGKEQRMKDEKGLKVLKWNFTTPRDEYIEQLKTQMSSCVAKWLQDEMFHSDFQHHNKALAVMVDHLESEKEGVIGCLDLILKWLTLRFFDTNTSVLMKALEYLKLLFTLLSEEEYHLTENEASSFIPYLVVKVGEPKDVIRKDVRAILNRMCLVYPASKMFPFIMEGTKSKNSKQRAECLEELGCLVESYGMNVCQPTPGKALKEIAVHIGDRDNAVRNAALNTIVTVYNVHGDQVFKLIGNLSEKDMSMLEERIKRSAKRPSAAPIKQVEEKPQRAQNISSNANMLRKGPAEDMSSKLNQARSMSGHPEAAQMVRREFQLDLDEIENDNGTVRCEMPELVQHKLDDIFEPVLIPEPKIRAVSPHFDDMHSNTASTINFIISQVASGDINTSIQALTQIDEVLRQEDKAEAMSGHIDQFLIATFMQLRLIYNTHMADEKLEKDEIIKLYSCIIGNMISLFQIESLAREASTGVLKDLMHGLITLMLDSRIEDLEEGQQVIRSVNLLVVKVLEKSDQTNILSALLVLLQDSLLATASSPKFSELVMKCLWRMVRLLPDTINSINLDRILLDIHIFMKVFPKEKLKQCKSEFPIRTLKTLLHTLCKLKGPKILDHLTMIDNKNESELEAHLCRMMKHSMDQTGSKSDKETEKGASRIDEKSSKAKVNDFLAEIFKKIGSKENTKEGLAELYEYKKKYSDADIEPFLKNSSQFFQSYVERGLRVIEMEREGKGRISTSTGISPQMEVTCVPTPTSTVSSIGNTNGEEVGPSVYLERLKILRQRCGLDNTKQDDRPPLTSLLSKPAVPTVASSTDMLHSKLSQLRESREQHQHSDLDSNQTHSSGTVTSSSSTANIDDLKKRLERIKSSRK
UniProt O43795: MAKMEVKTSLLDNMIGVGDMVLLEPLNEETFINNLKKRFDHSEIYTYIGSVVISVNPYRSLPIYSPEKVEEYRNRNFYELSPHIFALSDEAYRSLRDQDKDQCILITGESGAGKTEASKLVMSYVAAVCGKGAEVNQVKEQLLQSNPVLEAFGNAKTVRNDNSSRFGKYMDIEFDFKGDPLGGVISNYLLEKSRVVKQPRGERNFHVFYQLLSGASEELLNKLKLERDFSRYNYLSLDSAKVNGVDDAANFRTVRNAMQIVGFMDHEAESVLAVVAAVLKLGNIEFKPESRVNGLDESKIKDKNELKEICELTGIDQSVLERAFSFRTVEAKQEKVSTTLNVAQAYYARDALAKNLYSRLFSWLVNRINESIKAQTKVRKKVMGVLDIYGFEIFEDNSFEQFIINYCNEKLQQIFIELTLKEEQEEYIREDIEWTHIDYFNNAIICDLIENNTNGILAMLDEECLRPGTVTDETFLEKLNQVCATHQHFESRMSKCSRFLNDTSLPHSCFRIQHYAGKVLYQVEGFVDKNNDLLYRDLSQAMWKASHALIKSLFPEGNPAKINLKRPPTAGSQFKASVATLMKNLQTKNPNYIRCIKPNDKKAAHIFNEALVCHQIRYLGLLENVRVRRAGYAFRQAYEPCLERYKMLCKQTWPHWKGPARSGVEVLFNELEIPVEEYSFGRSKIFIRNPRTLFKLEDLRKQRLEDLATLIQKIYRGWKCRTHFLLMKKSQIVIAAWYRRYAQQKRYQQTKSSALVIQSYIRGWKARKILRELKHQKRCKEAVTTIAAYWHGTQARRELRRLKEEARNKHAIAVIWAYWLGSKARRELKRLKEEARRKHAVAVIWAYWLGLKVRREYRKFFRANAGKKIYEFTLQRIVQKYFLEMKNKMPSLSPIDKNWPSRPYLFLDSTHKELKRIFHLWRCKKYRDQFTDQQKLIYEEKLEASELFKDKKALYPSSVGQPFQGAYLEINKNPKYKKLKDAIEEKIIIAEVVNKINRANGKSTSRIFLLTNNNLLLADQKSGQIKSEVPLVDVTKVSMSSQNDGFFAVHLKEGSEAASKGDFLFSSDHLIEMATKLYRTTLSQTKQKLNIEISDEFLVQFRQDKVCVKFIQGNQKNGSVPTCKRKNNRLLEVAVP
UniProt P62140: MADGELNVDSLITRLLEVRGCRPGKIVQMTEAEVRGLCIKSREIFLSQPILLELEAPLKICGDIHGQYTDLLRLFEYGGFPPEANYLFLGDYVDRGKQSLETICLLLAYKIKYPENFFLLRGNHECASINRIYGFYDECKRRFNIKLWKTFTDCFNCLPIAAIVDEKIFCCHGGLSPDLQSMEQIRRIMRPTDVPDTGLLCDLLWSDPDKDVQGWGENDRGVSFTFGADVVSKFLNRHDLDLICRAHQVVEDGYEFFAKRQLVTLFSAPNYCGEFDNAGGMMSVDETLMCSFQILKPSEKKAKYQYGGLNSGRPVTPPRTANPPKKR
UniProt P34741, residues 19-201: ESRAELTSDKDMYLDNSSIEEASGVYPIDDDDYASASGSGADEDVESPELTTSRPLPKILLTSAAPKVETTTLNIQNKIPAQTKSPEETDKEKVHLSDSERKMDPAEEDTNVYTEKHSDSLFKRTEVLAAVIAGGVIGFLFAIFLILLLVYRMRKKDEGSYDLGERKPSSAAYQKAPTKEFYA

What was measured:
[1] = molecular target: T1, BirA*-tagged SPECC1L-ΔCHD (UniProt Q69YQ0); test: proximity labelling
T1 sequence: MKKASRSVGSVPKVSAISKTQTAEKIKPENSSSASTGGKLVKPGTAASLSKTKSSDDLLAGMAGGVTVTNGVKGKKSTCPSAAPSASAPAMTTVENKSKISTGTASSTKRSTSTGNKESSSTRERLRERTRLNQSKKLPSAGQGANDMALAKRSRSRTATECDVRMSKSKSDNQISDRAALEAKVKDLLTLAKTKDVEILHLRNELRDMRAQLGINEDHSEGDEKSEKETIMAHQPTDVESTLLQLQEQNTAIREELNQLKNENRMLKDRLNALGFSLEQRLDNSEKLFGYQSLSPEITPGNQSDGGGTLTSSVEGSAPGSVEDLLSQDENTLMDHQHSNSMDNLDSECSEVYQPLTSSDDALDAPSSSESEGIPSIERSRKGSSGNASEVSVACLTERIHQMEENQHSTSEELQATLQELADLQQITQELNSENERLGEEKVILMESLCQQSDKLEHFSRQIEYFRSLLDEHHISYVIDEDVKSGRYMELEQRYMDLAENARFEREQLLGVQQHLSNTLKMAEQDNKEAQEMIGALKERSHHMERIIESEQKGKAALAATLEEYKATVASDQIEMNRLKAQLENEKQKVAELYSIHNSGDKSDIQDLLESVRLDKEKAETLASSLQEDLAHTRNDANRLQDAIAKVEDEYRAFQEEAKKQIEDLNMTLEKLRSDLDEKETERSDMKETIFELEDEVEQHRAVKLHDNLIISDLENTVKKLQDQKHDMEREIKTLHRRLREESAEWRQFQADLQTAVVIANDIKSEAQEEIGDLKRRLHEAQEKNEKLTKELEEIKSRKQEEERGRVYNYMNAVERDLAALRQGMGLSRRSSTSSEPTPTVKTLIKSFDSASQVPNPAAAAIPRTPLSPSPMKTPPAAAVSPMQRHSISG

SPECC1L-BirA* (BioID/MS) = molecular target: T2, SPECC1L-BirA* (BioID/MS) (UniProt Q69YQ0); test: proximity labelling
T2 sequence: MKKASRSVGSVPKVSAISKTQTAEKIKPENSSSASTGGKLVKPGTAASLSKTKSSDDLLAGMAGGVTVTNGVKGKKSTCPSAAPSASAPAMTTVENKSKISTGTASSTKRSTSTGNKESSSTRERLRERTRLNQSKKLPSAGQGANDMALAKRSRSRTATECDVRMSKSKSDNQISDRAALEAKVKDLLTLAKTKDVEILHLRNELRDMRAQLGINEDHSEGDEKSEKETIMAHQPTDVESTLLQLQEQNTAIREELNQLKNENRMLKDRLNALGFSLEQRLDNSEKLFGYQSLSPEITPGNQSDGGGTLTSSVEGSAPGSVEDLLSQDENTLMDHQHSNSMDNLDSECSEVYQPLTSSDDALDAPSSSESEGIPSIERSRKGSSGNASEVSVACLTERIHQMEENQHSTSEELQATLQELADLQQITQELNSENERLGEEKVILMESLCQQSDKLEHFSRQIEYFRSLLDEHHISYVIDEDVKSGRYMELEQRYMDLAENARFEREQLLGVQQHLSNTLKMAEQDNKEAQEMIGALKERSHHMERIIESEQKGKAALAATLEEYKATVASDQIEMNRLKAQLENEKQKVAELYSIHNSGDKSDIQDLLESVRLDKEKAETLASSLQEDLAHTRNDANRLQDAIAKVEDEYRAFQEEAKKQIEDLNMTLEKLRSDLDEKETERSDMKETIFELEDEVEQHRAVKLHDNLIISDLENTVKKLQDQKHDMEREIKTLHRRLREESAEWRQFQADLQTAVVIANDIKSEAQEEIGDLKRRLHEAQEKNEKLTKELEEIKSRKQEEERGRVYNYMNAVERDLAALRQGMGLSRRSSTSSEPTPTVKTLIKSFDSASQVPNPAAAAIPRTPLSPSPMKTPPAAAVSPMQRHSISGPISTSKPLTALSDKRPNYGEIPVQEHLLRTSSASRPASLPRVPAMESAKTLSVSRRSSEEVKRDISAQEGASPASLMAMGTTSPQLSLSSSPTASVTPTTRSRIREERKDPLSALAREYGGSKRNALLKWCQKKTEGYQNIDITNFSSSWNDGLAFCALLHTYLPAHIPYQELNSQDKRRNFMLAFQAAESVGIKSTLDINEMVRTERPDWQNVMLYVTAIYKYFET

SPECC1L-GFP = molecular target: T3, SPECC1L-GFP (UniProt Q69YQ0); test: affinity purification with mass spectrometry
T3 sequence: T2 sequence

[2] = molecular target: MYPT1 (endogenous, U2OS) (human (endogenous in U2OS)) (UniProt O14974); test: affinity purification with mass spectrometry
[3] = molecular target: T1, BirA*-tagged SPECC1L-ΔCHD; test: proximity labelling; remark: listed apart in the source

binding (SPECC1L-BirA* (BioID/MS)): binds
Molecule: CRKL adaptor protein (endogenous) (from UniProt P46109 1-303)

binding (SPECC1L-GFP): binds
binding [2]: binds
Molecule: NuMA (nuclear mitotic apparatus) protein (endogenous, U2OS) (from UniProt Q14980 1-2115)

binding (SPECC1L-BirA* (BioID/MS)): binds
binding [1]: binds
Molecule: Coronin-1B (endogenous) (from UniProt Q9BR76 1-489)

binding (SPECC1L-BirA* (BioID/MS)): binds
Molecule: cortactin (CTTN) (endogenous) (from UniProt Q14247 1-550)

binding [1]: binds
Molecule: Syndecan SDC4 (endogenous) (from UniProt P31431 19-198)

binding (SPECC1L-BirA* (BioID/MS)): binds
binding [1]: binds
Molecule: Microtubule Associated Protein 4 (endogenous) (from UniProt P27816 1-1152)

binding (SPECC1L-GFP): binds
binding [2]: binds
Molecule: CAPZB (endogenous) (from UniProt P47756 1-272)

The next lines start with the molecule.

Molecule: Coronin CORO1C (endogenous) (from UniProt Q9ULV4 1-474)
binding [1]: binds

Molecule: MT polymerase CKAP5 (endogenous) (from UniProt Q14008 1-2032)
binding [1]: binds

Molecule: myosin (MYO1B) (endogenous) (from UniProt O43795 1-1136)
binding (SPECC1L-BirA* (BioID/MS)): binds

Molecule: PP1β (endogenous, U2OS) (from UniProt P62140 1-327) (enzyme)
binding [2]: binds

Molecule: Syndecan SDC2 (endogenous) (from UniProt P34741 19-201)
binding [1]: binds

Molecule: CRK adaptor protein (endogenous) (from UniProt P46108 1-304)
binding (SPECC1L-BirA* (BioID/MS)): binds

B1: Syndecan SDC1 (endogenous) (protein, UniProt P18827 23-310)
chain: QIVATNLPPEDQDGSGDDSDNFSGSGAGALQDITLSQQTPSTWKDTQLLTAIPTSPEPTGLEATAASTSTLPAGEGPKEGEAVVLPEVEPGLTAREQEATPRPRETTQLPTTHLASTTTATTAQEPATSHPHRDMQPGHHETSTPAGPSQADLHTPHTEDGGPSATERAAEDGASSQLPAAEGSGEQDFTFETSGENTAVVAVEPDRRNQSPVDQGATGASQGLLDRKEVLGGVIAGGLVGLIFAVCLVGFMLYRMKKKDEGSYSLEEPKQANGGAYQKPTKQEEFYA
binding [3]: binds

B2: SPECC1 (endogenous, U2OS) (protein, UniProt Q5M775 1-1068)
chain: MRSAAKPWNPAIRAGGHGPDRVRPLPAASSGMKSSKSSTSLAFESRLSRLKRASSEDTLNKPGSTAASGVVRLKKTATAGAISELTESRLRSGTGAFTTTKRTGIPAPREFSVTVSRERSVPRGPSNPRKSVSSPTSSNTPTPTKHLRTPSTKPKQENEGGEKAALESQVRELLAEAKAKDSEINRLRSELKKYKEKRTLNAEGTDALGPNVDGTSVSPGDTEPMIRALEEKNKNFQKELSDLEEENRVLKEKLIYLEHSPNSEGAASHTGDSSCPTSITQESSFGSPTGNQMSSDIDEYKKNIHGNALRTSGSSSSDVTKASLSPDASDFEHITAETPSRPLSSTSNPFKSSKCSTAGSSPNSVSELSLASLTEKIQKMEENHHSTAEELQATLQELSDQQQMVQELTAENEKLVDEKTILETSFHQHRERAEQLSQENEKLMNLLQERVKNEEPTTQEGKIIELEQKCTGILEQGRFEREKLLNIQQQLTCSLRKVEEENQGALEMIKRLKEENEKLNEFLELERHNNNMMAKTLEECRVTLEGLKMENGSLKSHLQGEKQKATEASAVEQTAESCEVQEMLKVARAEKDLLELSCNELRQELLKANGEIKHVSSLLAKVEKDYSYLKEICDHQAEQLSRTSLKLQEKASESDAEIKDMKETIFELEDQVEQHRAVKLHNNQLISELESSVIKLEEQKSDLERQLKTLTKQMKEETEEWRRFQADLQTAVVVANDIKCEAQQELRTVKRKLLEEEEKNARLQKELGDVQGHGRVVTSRAAPPPVDEEPESSEVDAAGRWPGVCVSRTSPTPPESATTVKSLIKSFDLGRPGGAGQNISVHKTPRSPLSGIPVRTAPAAAVSPMQRHSTYSSVRPASRGVTQRLDLPDLPLSDILKGRTETLKPDPHLRKSPSLESLSRPPSLGFGDTRLLSASTRAWKPQSKLSVERKDPLAALAREYGGSKRNALLKWCQKKTQGYANIDITNFSSSWSDGLAFCALLHTYLPAHIPYQELNSQEKKRNLLLAFEAAESVGIKPSLELSEMLYTDRPDWQSVMQYVAQIYKYFET
binding [2]: binds
